# Results from the supplement of paper PMC8728848.
# The other results are listed elsewhere or left out.
# B1: AT3G09350(27) (Arabidopsis thaliana), Q84J81 (protein)
# chain: MAKDGPNWDGLLKWSLSHADGTRPTRQLSEEDRKWFMEAMQSQTVDVVKRMKEITLVMQTPEQVLVEHGVTPEDIQDLLDELQEHVESIDMANDLHSIGGLVPLLSFLKNSHANIRAKAADVVSTIVQNNPRSQELVMETNALESLLSNFTSDTDIHARTQALGAISSLIRHNKPGVTAFKLANGYAGLRDALASDSVRFQRKALNLLQYLLQEDDSDRSIATGLGFPRVMMHLASSDDAEIREAALRGLLELSREKNDGSSSIDKSDEKLRQLLEERIKGITLMSQEDLETVKEERQLVDLLWSICYNEPSSLREKGLVVLPGEDALPPDVASKLFEPPLRASAANRNATEKKDEPMKLLGP
# How the values were obtained:
# Assay in all cases: glycan array binding signal (z-score within array); higher = stronger binding
# Settings in all cases: glycan notation: IUPAC condensed, linker removed
# [1] = target: Fuc(a1-2)[GalNAc(a1-3)]Gal(b1-3)GlcNAc(b1-3)GalNAc
# In short: (§1)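 The binding signal is a Z-score computed within each array and averaged over linkers. Arrays of the same protein sequence at different concentrations or buffers were also averaged together. Data originate from 3228 arrays in the Consortium for Functional Glycomics database, kept only where the protein sequence was available.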
# [2] = target: Fuc(a1-2)[GalNAc(a1-3)]Gal(b1-3)GlcNAc(b1-6)GalNAc
# In short: as §1
# [3] = target: Fuc(a1-2)[GalNAc(a1-3)]Gal(b1-4)Glc
# In short: as §1
# [4] = target: Fuc(a1-2)[GalNAc(a1-3)]Gal(b1-4)GlcNAc
# In short: as §1
# [5] = target: Fuc(a1-2)[GalNAc(a1-3)]Gal(b1-4)GlcNAc(b1-2)Man
# In short: as §1
# [6] = target: Fuc(a1-2)[GalNAc(a1-3)]Gal(b1-4)GlcNAc(b1-2)Man(a1-3)[Fuc(a1-2)[GalNAc(a1-3)]Gal(b1-4)GlcNAc(b1-2)Man(a1-6)]Man(b1-4)GlcNAc(b1-4)GlcNAc
# In short: as §1
# [7] = target: Fuc(a1-2)[GalNAc(a1-3)]Gal(b1-4)GlcNAc(b1-2)Man(a1-3)[Fuc(a1-2)[GalNAc(a1-3)]Gal(b1-4)GlcNAc(b1-2)Man(a1-6)]Man(b1-4)GlcNAc(b1-4)[Fuc(a1-6)]GlcNAc
# In short: as §1
# [8] = target: Fuc(a1-2)[GalNAc(a1-3)]Gal(b1-4)GlcNAc(b1-3)Gal(b1-4)GlcNAc
# In short: as §1
# [9] = target: Fuc(a1-2)[GalNAc(a1-3)]Gal(b1-4)GlcNAc(b1-3)Gal(b1-4)GlcNAc(b1-3)Gal(b1-4)GlcNAc
# In short: as §1
# [10] = target: Fuc(a1-2)[GalNAc(a1-3)]Gal(b1-4)GlcNAc(b1-3)GalNAc
# In short: as §1
# [11] = target: Fuc(a1-2)[GalNAc(a1-3)]Gal(b1-4)GlcNAc(b1-3)[Fuc(a1-2)[GalNAc(a1-3)]Gal(b1-4)GlcNAc(b1-6)]GalNAc
# In short: as §1
# [12] = target: Fuc(a1-2)[GalNAc(a1-3)]Gal(b1-4)GlcNAc(b1-6)GalNAc
# In short: as §1
# [13] = target: Fuc(a1-2)[GalNAc(a1-3)]Gal(b1-4)[Fuc(a1-3)]GlcNAc
# In short: as §1
# [14] = target: Fuc(a1-2)[GalNAc(a1-3)]Gal(b1-4)[Fuc(a1-3)]GlcNAc(b1-3)GalNAc
# In short: as §1
# [15] = target: Fuc(a1-2)[GalNAc(a1-4)]Gal(b1-4)GlcNAc
# In short: as §1
# [16] = target: Fuc(a1-2)[GalNAc(b1-3)]Gal
# In short: as §1
# [17] = target: Fuc(a1-3)GlcNAc
# In short: as §1
# [18] = target: Fuc(a1-3)[Gal(b1-4)]Glc6S
# In short: as §1
# [19] = target: Fuc(a1-3)[Gal(b1-4)]GlcNAc
# In short: as §1
# [20] = target: Fuc(a1-3)[Gal(b1-4)]GlcNAc(b1-2)Man
# In short: as §1
# [21] = target: Fuc(a1-3)[Gal(b1-4)]GlcNAc(b1-2)Man(a1-3)[Fuc(a1-3)[Gal(b1-4)]GlcNAc(b1-2)Man(a1-6)]Man(b1-4)GlcNAc(b1-4)GlcNAc
# In short: as §1
# [22] = target: Fuc(a1-3)[Gal(b1-4)]GlcNAc(b1-2)Man(a1-3)[Fuc(a1-3)[Gal(b1-4)]GlcNAc(b1-2)Man(a1-6)]Man(b1-4)GlcNAc(b1-4)[Fuc(a1-6)]GlcNAc
# In short: as §1
# [23] = target: Fuc(a1-3)[Gal(b1-4)]GlcNAc(b1-3)Gal(b1-3)[Fuc(a1-4)]GlcNAc
# In short: as §1
# [24] = target: Fuc(a1-3)[Gal(b1-4)]GlcNAc(b1-3)Gal(b1-4)[Fuc(a1-3)]GlcNAc
# In short: as §1
# [25] = target: Fuc(a1-3)[Gal(b1-4)]GlcNAc(b1-3)Gal(b1-4)[Fuc(a1-3)]GlcNAc(b1-3)Gal(b1-4)[Fuc(a1-3)]GlcNAc
# In short: as §1
# [26] = target: Fuc(a1-3)[Gal(b1-4)]GlcNAc(b1-3)GalNAc
# In short: as §1
# [27] = target: Fuc(a1-3)[Gal(b1-4)]GlcNAc(b1-6)GalNAc
# In short: as §1
# [28] = target: Fuc(a1-3)[Gal(b1-4)]GlcNAc(b1-6)[Gal(b1-3)GlcNAc(b1-3)]Gal(b1-4)Glc
# In short: as §1
# [29] = target: Fuc(a1-3)[Gal(b1-4)]GlcNAc6S
# In short: as §1
# [30] = target: Fuc(a1-3)[Gal3S(b1-4)]Glc
# In short: as §1
# [31] = target: Fuc(a1-3)[Gal3S(b1-4)]GlcNAc
# In short: as §1
# [32] = target: Fuc(a1-3)[Gal3S(b1-4)]GlcNAc6S
# In short: as §1
# [33] = target: Fuc(a1-3)[GalNAc(b1-4)]GlcNAc
# In short: as §1
# [34] = target: Fuc(a1-3)[GalNAc(b1-4)]GlcNAc6S
# In short: as §1
# [35] = target: Fuc(a1-4)GlcNAc
# In short: as §1
# [36] = target: Fuc(b1-3)GlcNAc
# In short: as §1
# [37] = target: Gal(a1-2)Gal
# In short: as §1
binder,measurement,setting,value
B1,glycan array binding signal (z-score),[1],0.1
same,glycan array binding signal (z-score),[2],-0.293
same,glycan array binding signal (z-score),[3],-0.001
same,glycan array binding signal (z-score),[4],-0.334
same,glycan array binding signal (z-score),[5],-0.584
same,glycan array binding signal (z-score),[6],0.499
same,glycan array binding signal (z-score),[7],0.007
same,glycan array binding signal (z-score),[8],-0.256
same,glycan array binding signal (z-score),[9],-0.337
same,glycan array binding signal (z-score),[10],-0.271
same,glycan array binding signal (z-score),[11],-0.282
same,glycan array binding signal (z-score),[12],-0.317
same,glycan array binding signal (z-score),[13],0.498
same,glycan array binding signal (z-score),[14],5.85
same,glycan array binding signal (z-score),[15],-0.215
same,glycan array binding signal (z-score),[16],-0.043
same,glycan array binding signal (z-score),[17],0.323
same,glycan array binding signal (z-score),[18],0.877
same,glycan array binding signal (z-score),[19],-0.773
same,glycan array binding signal (z-score),[20],-0.779
same,glycan array binding signal (z-score),[21],-0.611
same,glycan array binding signal (z-score),[22],0.466
same,glycan array binding signal (z-score),[23],-0.365
same,glycan array binding signal (z-score),[24],0.668
same,glycan array binding signal (z-score),[25],0.666
same,glycan array binding signal (z-score),[26],-0.11
same,glycan array binding signal (z-score),[27],0.461
same,glycan array binding signal (z-score),[28],-0.671
same,glycan array binding signal (z-score),[29],0.496
same,glycan array binding signal (z-score),[30],-0.306
same,glycan array binding signal (z-score),[31],-0.67
same,glycan array binding signal (z-score),[32],0.118
same,glycan array binding signal (z-score),[33],3.56
same,glycan array binding signal (z-score),[34],-0.179
same,glycan array binding signal (z-score),[35],0.55
same,glycan array binding signal (z-score),[36],-0.444
same,glycan array binding signal (z-score),[37],-0.39

# Given bar-delimited: part of the list above.
binder | measurement | setting | value
B1 | glycan array binding signal (z-score) | [7] | 0.007
same | glycan array binding signal (z-score) | [29] | 0.496
